These are yes or no findings as the source states them, for the method shown. In cells and extracts the contact can be indirect. Some entries that bind do so weakly or less than the wild type. Where a sequence is shown, tags or fusion partners need not be part of it.
Molecular target: GST-tagged Drosophila CtBP (Drosophila melanogaster) (UniProt O46036)
Assay: pull-down; in vitro; GST-dCtBP bound to Glutathione Sepharose beads, His-tagged Strigamia Su(H) fragment in solution; detection by anti-His blot

By UniProt entry, the sequences of proteins in these tests, tags left out.
UniProt O46036: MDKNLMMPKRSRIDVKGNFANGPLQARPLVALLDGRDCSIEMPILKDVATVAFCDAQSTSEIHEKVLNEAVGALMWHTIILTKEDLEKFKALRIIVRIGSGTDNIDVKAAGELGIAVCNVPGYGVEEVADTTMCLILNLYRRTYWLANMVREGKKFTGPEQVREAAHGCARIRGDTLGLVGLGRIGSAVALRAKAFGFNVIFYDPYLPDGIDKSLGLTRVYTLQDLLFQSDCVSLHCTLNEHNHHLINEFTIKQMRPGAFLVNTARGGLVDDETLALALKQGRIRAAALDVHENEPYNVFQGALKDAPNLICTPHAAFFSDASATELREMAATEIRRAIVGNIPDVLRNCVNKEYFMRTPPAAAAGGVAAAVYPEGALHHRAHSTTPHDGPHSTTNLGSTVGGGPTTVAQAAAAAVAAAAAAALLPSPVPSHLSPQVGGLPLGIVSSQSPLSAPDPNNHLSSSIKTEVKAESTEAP

B1: His-tagged 116-aa segment of Strigamia maritima Su(H) (exons 2-3), wild type (domain or fragment)
chain: GQYDYPPPLASTYSREADLWNVNLATYSSAPTTCTGATPAPSVTGFYAQATGSNSVSPSSVSLTTLTPHFADNHPVDLSNSHRGEGGHLDLVRFQSDRVDAYKHANGLSVHIPDHHA
B1 was tested. Which binding did it give?
Its binding is “binds”.

Reference: publication PMC6777938, “Evolutionary emergence of Hairless as a novel component of the Notch signaling pathway” (eLife, 2019)
